Out of some 360,000 compounds screened, about 10,000 (2.8%) were called active. Inconclusive results, whose numbers are uncertain, are shown with a selection of clear calls. The call rests on the fitted dose curve; in most records, active means well fitted inhibition curve with a large enough effect; inconclusive means small, poorly fitted or top-dose-only effect; inactive means flat fitted curve, though single readings scatter. Potencies of inconclusive entries are doubtful fits and often do not repeat.
These compounds were tested against Serine/threonine-protein kinase PLK1 (Homo sapiens) (UniProt P53350) (assay: qHTS for Inhibitors of PLK1-PDB (polo-like kinase 1 - polo-box domain): Primary Screen). Settings: Plk1 PBD binding of FITC phosphopeptide, fluorescence polarization.
Further: nearly all actives have a fitted effect of over 65% in size.
On the % scale 0 is the no-effect control and ±100 the full control effect; potency means the concentration at half of the fitted maximal effect.
Wherever max response, negative = inhibition is given: series mostly up to about 57 µM.

Chains of the proteins cited; added tags and fusions are not shown.
UniProt P53350, whole entry, looked up: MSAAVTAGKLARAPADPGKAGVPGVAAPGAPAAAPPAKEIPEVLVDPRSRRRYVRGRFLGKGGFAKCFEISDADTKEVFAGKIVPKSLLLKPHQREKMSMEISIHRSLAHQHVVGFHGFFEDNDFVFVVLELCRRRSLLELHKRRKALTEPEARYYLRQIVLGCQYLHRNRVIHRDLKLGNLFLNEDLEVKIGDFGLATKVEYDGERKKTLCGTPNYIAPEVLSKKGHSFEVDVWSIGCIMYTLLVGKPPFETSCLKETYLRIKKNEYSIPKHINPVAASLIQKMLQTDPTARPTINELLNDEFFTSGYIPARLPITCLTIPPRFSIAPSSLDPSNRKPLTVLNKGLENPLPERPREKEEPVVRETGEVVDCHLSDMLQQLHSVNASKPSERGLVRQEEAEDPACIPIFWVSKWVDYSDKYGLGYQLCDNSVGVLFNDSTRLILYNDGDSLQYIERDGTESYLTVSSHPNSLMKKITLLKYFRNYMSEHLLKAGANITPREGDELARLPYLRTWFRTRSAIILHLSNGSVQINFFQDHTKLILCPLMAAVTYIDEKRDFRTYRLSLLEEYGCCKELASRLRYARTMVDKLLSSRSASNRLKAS

SMILES | Potency | max response, negative = inhibition
Cc1cc(=O)[nH]c(SCC(=O)Nc2nc3ccccc3s2)n1 | inconclusive: 18.9 µM [inhibitor, partial curve] | –
Cc1cc(-c2cc(-c3ccc(Cl)cc3)nc(N)c2C#N)co1 | active: 21.2 µM | –
COc1ccc(NC(=O)C(c2cccc3ccccc23)n2c(=O)c(-c3ccco3)nc3ccccc32)cc1 (centres undefined) | – | inactive: -15.5%
C=CCN1C(=O)/C(=C\C=C2\N(C)c3ccccc3C2(C)C)SC1=S | inconclusive: 10.6 µM [inhibitor, partial curve, poor fit] | –
CCCN1CCN(C(=S)Nc2ccc([N+](=O)[O-])cc2)CC1 | inconclusive: 26.7 µM [inhibitor, partial curve] | –
Cc1cnc(NC(=O)CSc2ccc(Cl)cc2)s1 | inconclusive: 26.7 µM [inhibitor, single point] | –
COc1ccc(NC(=O)C(c2ccc(OC)cc2)N(C)C(=O)CNC(C)=O)cc1 (centres undefined) | inconclusive: 23.8 µM [inhibitor, single point] | –
CN(C(=S)Nc1ccccc1)c1ccccc1 | – | inactive: -5.5%
Cc1ccc(NC(=S)NCC23C=CC(O2)C2C(=O)N(c4ccc(C)cc4)C(=O)C23)cc1 (centres undefined) | – | inactive: -9.91%
CCn1ccnc1CN(C)C(=O)CCc1nnc(CCC2CCCCC2)o1 | inconclusive: 16.8 µM [inhibitor, partial curve] | –
Cc1ccc(-c2cc(C(=O)Nc3ccccn3)c3ccccc3n2)o1 | inconclusive: 13.4 µM [inhibitor, partial curve] | –
O=C(CSc1nnc(CNC(=O)c2ccc(F)cc2)o1)Nc1nccs1 | inconclusive: 23.8 µM [inhibitor, partial curve] | –
Cc1oc(-c2ccc3ccccc3c2)nc1CN(C)C(C)c1ccncn1 (centres undefined) | – | inactive: -0.29%
COc1ccc(-c2nn(-c3ccccc3)cc2/C=C(\CC(=O)O)c2nc3ccccc3s2)cc1OC | inconclusive: 29.9 µM [inhibitor, single point] | –
O=C(CN1C(=O)CC(c2ccco2)Sc2ccccc21)NCC1CCCO1 (centres undefined) | – | inactive: -13.7%
Cc1ccc([N+](=O)[O-])c(NC(=O)COC(=O)C2CC3CCCC(C2)C3=O)c1C (centres undefined) | – | inactive: -4.51%
c1ccc(-c2noc(CN3CCN(c4cnccn4)CC3)n2)cc1 | active: 13.4 µM | –
O=C(CSc1nc2[nH]c(=O)cc(O)c2s1)Nc1nccs1 | – | inactive: -15.4%
O=C1C(=O)N(Cc2cccs2)c2ccccc21 | – | inactive: -2.83%
C#CCN(C[C@@H](CC(C)C)NC(=O)OC(C)(C)C)S(=O)(=O)c1ccc(Br)cc1F | inconclusive: 21.2 µM [inhibitor, single point] | –
C/C(=N\NC(=O)CC#N)C1COc2ccccc2O1 (centres undefined) | active: 21.2 µM | –
Clc1ccc(C2=NNC(=NCC3CCCO3)SC2)cc1 (centres undefined) | inconclusive: 23.8 µM [inhibitor, partial curve] | –
CC1(C)Cc2c(c(-c3ccccc3)nc3sc4c(=O)[nH]c(=S)[nH]c4c23)CO1 | – | inconclusive: -32.2% [inhibitor]
O=C(c1ccc(Cl)cc1)N1CCN(c2ccc(F)cc2)CC1 | – | inactive: -0.276%
CC1CCC2(CC1)SCC(=O)N2c1ccc(F)cc1 (centres undefined) | inconclusive: 26.7 µM [inhibitor, single point] | –

SMILES | Potency | max response, negative = inhibition
CC1=C(C(=O)O)N2C(=O)C(NC(=O)c3ccn(C)n3)C2SC1 (centres undefined) | inconclusive: 37.7 µM [inhibitor, single point] | –
CCCSc1cc(NCCOC(=O)CCC)c([N+](=O)[O-])c2nonc12 | active: 16.8 µM | –
CC1CCCC(C)N1C(=O)c1cc2ncc(CCCl)cn2n1 (centres undefined) | – | inactive: -4.92%
Cc1ccc2occ(/C=N/NC(=O)c3ccccc3C)c(=O)c2c1 | – | inconclusive: -30.2% [inhibitor]
CCCC(=O)N(C)c1nnc(-c2ccc(OC)cc2)s1 | inconclusive: 23.8 µM [inhibitor, partial curve] | –
Cc1ccccc1OCC(=O)N/N=C/C=C/c1ccccc1 | active: 29.9 µM | –
COc1cccc(-c2cc(C(F)(F)F)nc(-n3cc(C)cn3)n2)c1 | inconclusive: 29.9 µM [inhibitor, partial curve] | –
N/C(=N\OC(=O)c1ccc(Cl)cc1Cl)c1ccccn1 | inconclusive: 33.6 µM [inhibitor, partial curve] | –
Nc1cnccc1C(=O)O | inconclusive: 29.9 µM [inhibitor, single point] | –
CCOc1ccc2nc(N3CCCN(C(=O)Nc4ccccc4C)CC3)c(C#N)cc2c1 | inconclusive: 26.7 µM [inhibitor, single point] | –
OC[C@@H]1CN(CCN2CCOCC2)C[C@H](n2cnc3c(Nc4ccccc4)ncnc32)O1 | – | inactive: 4.08%
O=C(O)CCc1ccc(S(=O)(=O)Nc2ccccc2N2CCCCC2)cc1 | inconclusive: 75.2 µM [inhibitor, partial curve] | –
COc1ccc(C(=O)Nc2nc(C)cs2)cc1S(=O)(=O)N1CCCC1 | inconclusive: 18.9 µM [inhibitor, partial curve] | –
Cc1ccc(/C=N/N=C/c2ccc(C)cc2)cc1 | active: 21.2 µM | –
Cc1ccccc1N1CCN(Cc2ccc(Br)o2)CC1 | inconclusive: 23.8 µM [inhibitor, single point] | –
CCOC(=O)c1c(C)[nH]c(C(=O)CSc2nnc(C3CC3)n2N)c1C | active: 23.8 µM | –
CCOC(=O)c1nc(Nc2cccc(C)c2)c2ccccc2n1 | active: 21.2 µM | –
COc1ccccc1CCC(=O)Nc1ccc2c(c1)CN(CCCn1cccn1)CC2 | – | inconclusive: -8.71% [inhibitor]
Cc1ccc(-c2n[nH]c(=S)c3ccccc23)cc1 | inconclusive: 18.9 µM [inhibitor, partial curve] | –
O=C(/C=C/c1ccnc2ccccc12)c1cccs1 | inconclusive: 3.77 µM [inhibitor, partial curve, poor fit] | –
CC(C)NC(=O)Nc1cccs1 | – | inactive: -3.25%
Cc1ccc(/C=N/NC(=O)Cn2nc(C)c([N+](=O)[O-])c2C)o1 | – | inactive: -4.24%
Cc1cccc(/C=C/C(=O)c2ccc([N+](=O)[O-])o2)c1 | inconclusive: 8.44 µM [inhibitor, partial curve] | –
O=C(OCc1nnc(-c2cccs2)o1)c1cccnc1Cl | – | inactive: -10.3%
CCOC(=O)c1cnc(SCC(=O)c2ccccc2)nc1N | – | inactive: -22.7%

SMILES | Potency | max response, negative = inhibition
COc1cc(-c2nn3c(C4CCCCC4)nnc3s2)cc(OC)c1OC | inconclusive: 13.4 µM [inhibitor, partial curve] | –
CCOc1cccc(/C=N/NC(=O)c2cc(-c3cccn3C)n[nH]2)c1O | – | inconclusive: -29.8% [inhibitor]
COc1ccc2[nH]c3c(=O)n(CCCCC(=O)N4CCCC4)c(=S)[nH]c3c2c1 | – | inactive: -9.76%
COc1ccc(OC)c(C(=O)CSc2nc3c(c(=O)n(C)c(=O)n3C)n2C(C)C)c1 | inconclusive: 37.7 µM [inhibitor, single point] | –
CC(=O)C1=C(c2ccccc2)NC(=S)NC1c1ccc(O)c(O)c1 (centres undefined) | – | inactive: -13%
Cc1cc(C)c2c(CC(=O)NC(C)C)coc2c1 | – | inactive: -2.61%
CCc1nc2c(OCc3ccccc3)cccn2c1N(C)C(C)=O | – | inactive: 1.71%
COc1cc2cc(C(=O)N(C)C3CCS(=O)(=O)C3)[nH]c2cc1OC (centres undefined) | inconclusive: 10.6 µM [inhibitor, partial curve] | –
CN(C)CCN(C)Cc1c2ccccc2c(CN(C)CCN(C)C)c2ccccc12 | inconclusive: 15 µM [inhibitor, partial curve] | –
CC(=O)N(C1CC(C)C(C#N)(C#N)C1(C#N)C#N)N(C)C (centres undefined) | active: 2.38 µM | –
CC(=O)c1ccc(N2CCN(C(=O)C3CCCN(S(=O)(=O)c4c(C)[nH]c(=O)[nH]c4=O)C3)CC2)cc1 (centres undefined) | active: 15 µM | –
O=C(Nc1cc(C(F)(F)F)ccc1N1CCOCC1)c1c(F)c(F)c(F)c(F)c1F | active: 29.9 µM | –
CC(C)N(Cc1ccccc1)C(=S)NCc1ccccc1 | inconclusive: 23.8 µM [inhibitor, partial curve] | –
O=C(O)/C=C/C(=O)NNc1ccc([N+](=O)[O-])cc1 | active: 6.7 µM | –
CC(=O)[C@H]1[C@@H]2C(=O)N(c3cccc(Cl)c3)C(=O)[C@@H]2[C@H]2c3ccccc3C=CN21 | inconclusive: 21.2 µM [inhibitor, single point] | –
O=C(CN1CCN(CC(=O)c2ccc(Cl)cc2)CC1)c1ccc(Cl)cc1 | inconclusive: 23.8 µM [inhibitor, partial curve] | –
CCc1ccc(CN/C=C/C(=O)c2ccc(Br)cc2)cc1 | active: 23.8 µM | –
c1cc(C2CCN(Cc3nc(-c4ccc5c(c4)OCO5)no3)CC2)ccn1 | – | inactive: -7.88%
CCOC(=O)/C(C#N)=C/Nc1cc(C(=O)OCC)cc2c(OC)c(OC)ccc12 | inconclusive: 23.8 µM [inhibitor, single point] | –
COc1cc(/C=C2\C(=O)ON=C2c2ccc(Cl)cc2)ccc1O | inconclusive: 0.844 µM [inhibitor, full curve] | –
Cc1cc(C(=O)N/N=C/c2ccncc2)c(C)o1 | – | inactive: -10.4%
Cc1ccc(CNC(=O)c2ccc(Cn3cc(-c4ccc(C)cc4)nc3-c3ccncc3)cc2)cc1 | – | inactive: -4.97%
Cc1ccc(-c2cc(C(=O)Nc3cccnc3)c3ccccc3n2)o1 | inconclusive: 29.9 µM [inhibitor, single point] | –
NC(=O)CC(NC(=O)Cc1ccc(Br)cc1)c1ccc(NCc2ccc(F)c(F)c2)c([N+](=O)[O-])c1 (centres undefined) | – | inactive: 0.379%

Structural class, the entries above containing bromine (4)
SMILES | Potency | max response, negative = inhibition
C#CCN(C[C@@H](CC(C)C)NC(=O)OC(C)(C)C)S(=O)(=O)c1ccc(Br)cc1F | inconclusive: 21.2 µM [inhibitor, single point] | –
Cc1ccccc1N1CCN(Cc2ccc(Br)o2)CC1 | inconclusive: 23.8 µM [inhibitor, single point] | –
CCc1ccc(CN/C=C/C(=O)c2ccc(Br)cc2)cc1 | active: 23.8 µM | –
NC(=O)CC(NC(=O)Cc1ccc(Br)cc1)c1ccc(NCc2ccc(F)c(F)c2)c([N+](=O)[O-])c1 (centres undefined) | – | inactive: 0.379%
